Cell number change and AC50 data for 37 molecules are collected here from PubChem BioAssay AID2685 (National Center for Advancing Translational Sciences (NCATS), 2010).

A short description of this assay: qHTS Assay for Lipid Storage Modulators in Drosophila S3 Cells.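 As to Cell number change: cells counted by Cell Tracker Red CMTPX staining in the red channel.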 The conditions noted are these: BODIPY lipid droplet fluorescence, 18-24 h; for cell number change: measured here: cell count max response, cells fed with added oleic acid. An outline of the steps: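 Drosophila S3 cells got compounds at several concentrations plus oleic acid (400 uM solution). Laser-scanning cytometry with 488 nm excitation read lipid droplets at 500-530 nm and cells at 575-640 nm. Percent activity was relative to 20 uM Triacsin C.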

[1] abbreviates: measured here: lipid fluorescence (Fed channel) AC50, cells fed with added oleic acid.
Where [2] appears, read: measured here: cell number channel AC50, cells fed with added oleic acid.

Molecules are shown by their SMILES. This is one part of the list. The main result of the screen is listed elsewhere. These columns were measured beside it and carry no call. Compounds called inactive in the main read-out are mostly missing here. Potencies come from curve fits of mixed quality, noted in brackets.

As usually defined, the AC50 is the concentration at which the activity in the assay is half-maximal. A lower AC50 goes with activity at low concentration. For `COc1ccc(S(=O)(=O)N2CCC(C(=O)NCCC(=O)NCc3ccccc3OC)CC2)cc1`, the cell number change was -17.1%. Further, the AC50 under setting [1] is 14.6 µM [rising, single point]. `O=C(CN1CCC(NC(=O)c2ccccc2Cl)CC1)NCc1ccccc1`: the cell number change is -6.58%. Turning to `CCOC(=O)C1CCN(C(=O)c2cc3c(C)cc(C)cc3[nH]2)CC1`, the cell number change amounted to 8.62%. The AC50 under setting [1] is 5.8 µM [rising, single point]. Regarding `Oc1ccc(Cl)cc1CNc1cccc2cccnc12`, the cell number change was -47.5%. Moreover, the AC50 under setting [2] was 14.6 µM [falling, single point]. Also, under setting [1], the AC50 was 25.9 µM [rising, single point]. Regarding `CC(=O)N1CCN(CC(O)COc2ccc(S(=O)(=O)N3CCOCC3)cc2)CC1` (stereo unspecified), the cell number change is -8.8%. The concentration at half-maximal activity (AC50) under setting [1] is 0.0206 µM [falling, full curve, poor fit]. `CCOc1ccc2nc(SC3CC(=O)N(c4cccc(OC)c4)C3=O)sc2c1` (stereo unspecified): the cell number change is 13.8%. Further, the AC50 under setting [2] was 0.651 µM [falling, single point]. The AC50 under setting [1] is 1.03 µM [falling, single point]. Take `COC(=O)c1c(-c2ccccc2)csc1NC(=O)C1CC=CCC1C(=O)O` (stereo unspecified): the cell number change was determined as 2.26%. In addition, the AC50 under setting [2] is 0.00461 µM [falling, full curve, poor fit]. With `COc1ccc(C2=NOC3(CC(=O)N(c4ccc(C)cc4)C3=O)C2)c(OC)c1` (stereo unspecified), the cell number change was -0.261%. `Nc1nnc(CSCc2ccc(F)cc2)s1`: under setting [1], the AC50 is 0.13 µM [falling, full curve, poor fit].

`NC(=O)C1CCCN(C(=O)c2ccc3c(c2)NC(=O)CS3)C1` (stereo unspecified): the cell number change was found to be 24.1%. Besides, the AC50 under setting [1] is 16.4 µM [rising, partial curve]. Regarding `O=C(COC(=O)c1ccccc1NC(=O)c1ccccc1)c1cccc([N+](=O)[O-])c1`, the cell number change turned out to be 34%. For the same molecule, the AC50 under setting [2] was 29.1 µM [rising, single point]. As for `O=C(OCCc1cc2ccccc2c(=O)o1)N1CCOCC1`, the cell number change is -18.5%. Under setting [2], the AC50 is 0.651 µM [rising, single point]. Also, under setting [1], the AC50 is 0.058 µM [rising, partial curve, poor fit]. In the case of `N#CCN1C(=O)C(=O)N(Cc2cccc(C(F)(F)F)c2)C1=O`, the cell number change came out at 22.4%. Take `O=C(CCc1nnc2ccc(N3CCCCC3)nn12)NCc1ccco1`: the cell number change was 0.943%. Moreover, the AC50 under setting [1] was 29.1 µM [rising, single point]. `COc1cccc(CNC(=O)Cn2cc3c(n2)CCCC3)c1`: the cell number change stood at 10.7%. Besides, under setting [1], the AC50 was 6.51 µM [falling, partial curve, poor fit]. On to `CC(OC(=O)CCN1C(=O)C2CC=CCC2C1=O)C(=O)c1ccc(F)cc1` (stereo unspecified), for which the cell number change was -4.45%. Also, under setting [1], the AC50 was 29.1 µM [rising, single point]. In the case of `Cc1c(NC(=O)COc2ncnc3ccccc23)c(=O)n(-c2ccccc2)n1C`, the cell number change worked out at 7.46%. Moreover, the AC50 under setting [2] is 0.146 µM [falling, full curve, poor fit]. Take `CC(=O)C(C)n1c(CN(C)Cc2ccccc2)nc2c1c(=O)n(C)c(=O)n2C` (stereo unspecified): the cell number change was -34.6%. The half-maximal activity concentration (AC50) under setting [2] is 16.4 µM [falling, single point]. Turning to `CCOc1ccc(CSCCNC(=S)Nc2ccccc2)cc1`, the cell number change was -15.2%. Further, the AC50 under setting [1] was 16.4 µM [falling, single point]. Take `C#CCOCCOCCOCCNc1nc(N2CCN(C(=O)[C@H](CCCCN)n3cc(CCC(=O)O)nn3)CC2)nc(N2CCN(C(=O)[C@H](CCCCN)n3cc(CC(C)O)nn3)CC2)n1` (stereo partly specified): the cell number change is -4.7%. Moreover, under setting [1], the AC50 is 6.51 µM [rising, single point]. Regarding `C#CCN1C(=O)S/C(=C\c2cc3c(cc2OC)OCO3)C1=O`, the cell number change is -6.3%. Under setting [2], the half-maximal activity concentration (AC50) was 0.146 µM [rising, full curve, poor fit]. Also, the AC50 under setting [1] was 29.1 µM [falling, single point].

On to `CCC1CCCCN1CCCNC(=O)CNC(=O)c1nn(-c2ccc(OC)cc2)c(=O)c2ccccc12` (stereo unspecified), for which the cell number change was found to be 6.76%. In addition, under setting [1], the AC50 is 6.51 µM [falling, partial curve, poor fit]. Regarding `Cc1ccc(-n2cc(CN3CCC(CO)(Cc4cccc(C(F)(F)F)c4)CC3)cn2)cc1`, the cell number change was -41.6%. Under setting [2], the AC50 is 20.6 µM [falling, single point]. Further, the AC50 under setting [1] is 29.1 µM [falling, single point]. On to `N#C/C(=C\c1ccc([N+](=O)[O-])o1)C(=O)Nc1ccc(F)cc1`, for which the cell number change came out at 63.1%. Further, the AC50 under setting [2] was 32.6 µM [rising, partial curve]. Take `COc1ccc(-c2cn[nH]c2-c2ccc(OCC(=O)NN)cc2O)cc1`: the cell number change was 22.5%. Under setting [2], the AC50 was 6.51 µM [rising, single point]. As to `COc1ccc(CC(=O)OCC(=O)Nc2ccc(Cl)cn2)cc1`, the AC50 under setting [2] was 0.731 µM [rising, single point].

Turning to `COCCCNC(=O)C(C)N1c2cccc3cccc(c23)S1(=O)=O` (stereo unspecified), under setting [1], the AC50 was 25.9 µM [rising, single point]. With `Cc1ccc(C2Nc3cccc4cccc(c34)N2)cc1`, the cell number change was found to be 9.12%. The AC50 under setting [1] is 29.1 µM [rising, single point]. As for `Cc1cc(CC(C)C)n(-c2nc3ccccc3c(=O)n2OCC(=O)N(C)C)n1`, the cell number change was -5.54%. `CCc1ccccc1NC(=O)C1CCCN1S(=O)(=O)c1ccc(-c2ccc(=O)[nH]n2)s1` (stereo unspecified): under setting [1], the AC50 was 0.58 µM [rising, single point].

As to `O=C(COc1cccc2cccnc12)Nc1cccc(S(=O)(=O)N2CCCC2)c1`, the cell number change was -32.5%. For the same molecule, the AC50 under setting [2] is 41.1 µM [falling, partial curve, poor fit]. Besides, the AC50 under setting [1] is 0.206 µM [rising, full curve, poor fit].

Regarding `Nc1nnc(CC(=O)N/N=C/c2ccc(-c3ccc(Cl)cc3Cl)o2)s1`, the cell number change worked out at 10%. Besides, under setting [1], the AC50 was 3.66 µM [rising, single point]. As for `O=C1C(=O)N(c2ccc(O)cc2)C(c2ccccc2[N+](=O)[O-])/C1=C(\O)c1ccccc1` (stereo unspecified), the cell number change was -15.8%. For the same molecule, the concentration at half-maximal activity (AC50) under setting [1] was 7.31 µM [falling, partial curve, poor fit].

Regarding `C=CCn1c(=NC(=O)c2ccccc2[N+](=O)[O-])sc2cc(S(C)(=O)=O)ccc21`, the cell number change is 0.215%. For the same molecule, under setting [1], the AC50 was 1.16 µM [rising, partial curve, poor fit]. For the molecule `O=C(N/N=C/c1ccccc1F)C(=O)N1CCCCCC1`, the cell number change is 36.5%. For the same molecule, the AC50 under setting [2] is 29.1 µM [rising, single point]. Take `CC1CCN(C(=O)c2[nH]cnc2C(=O)N[C@@H](Cc2ccccc2)C(=O)OC(C)(C)C)CC1`: the cell number change was found to be 13.2%. With `Cc1ccc(CCNC(=O)C2CCCN(S(=O)(=O)c3cccc4nsnc34)C2)cc1` (stereo unspecified), the cell number change is 2.14%. The AC50 under setting [1] was 0.58 µM [rising, single point].
